Experimental data taken from the supplement of paper PMC8166895.
Counter-ions that a name gives are not always drawn. The list shows a part of the results. Most values lie at the level of the controls, where differences are scatter.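 Melting temperature was read by differential scanning fluorimetry in a single-replicate pilot screen of a library of approved drugs and clinical or known-target compounds. Compounds raising the melting point by at least 2 °C were the top stabilizing hits, and negative shifts mean destabilization.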

Each compound was assayed on SARS-CoV-2 main protease (Mpro, nsp5) (assay: thermal shift ΔTm of Mpro relative to plate average Tm; higher = stronger thermal stabilization of Mpro (binding)). Conditions: 10 µM; protein concentration 1 µM.

Row | Compound | thermal shift ΔTm of Mpro
1 | Cc1ncc([N+](=O)[O-])n1CCO [Metronidazole] | 0.083 °C
2 | O=C(Cc1cccc(OC(F)(F)F)c1)Nc1ccc(CCCCc2nnc(NC(=O)Cc3ccccn3)s2)nn1 | 0.0792 °C
3 | O=S(=O)(CCC(F)=C(F)F)c1ncc(Cl)s1 [Fluensulfone] | -0.0145 °C
4 | CC(=O)O/N=C1\C(=O)N(Cc2cc(Cl)ccc2Cl)c2ccc(Cl)cc21 | 0.209 °C
5 | COc1ccc(COc2ccc(Cc3cnc(N)nc3N)cc2OC)cc1 | -0.071 °C
6 | Cc1cc([N+](=O)[O-])ccc1NS(=O)(=O)c1cc(Cl)ccc1Cl | 0.986 °C
7 | CCN(CC)C(=O)Cc1csc(NS(=O)(=O)c2cccc(Cl)c2C)n1 | -0.0242 °C
8 | O=C(O)CCNc1cc(N2CCc3ccccc3CC2)nc(-c2ccccn2)n1 | -0.232 °C
9 | COc1cnc(-n2cnc(C)n2)c2c1c(C(=O)C(=O)N1CCN(C(=O)c3ccccc3)CC1)cn2COP(=O)(O)O [Fostemsavir] | -0.0843 °C
10 | C=CC[C@@H]1/C=C(\C)C[C@H](C)C[C@H](OC)[C@H]2O[C@@](O)(C(=O)C(=O)N3CCCC[C@H]3C(=O)O[C@H](/C(C)=C/[C@@H]3CC[C@@H](O)[C@H](OC)C3)[C@H](C)[C@@H](O)CC1=O)[C@H](C)C[C@@H]2OC [Tacrolimus (FK506)] | -0.144 °C
11 | CN(C)Cc1cccc(N=C(c2ccccc2)c2c(O)[nH]c3cc(C(N)=O)ccc23)c1 | -0.0811 °C
12 | O=C(N/N=C/c1ccc(O)c(O)c1)c1cc2ccccc2cc1O [Dynasore] | 0.849 °C
13 | Cc1ccc(C(=O)c2cc(O)c(O)c([N+](=O)[O-])c2)cc1 [Tolcapone] | 0.887 °C
14 | CC(C)(C)[Si](C)(C)Oc1ccc2oc(=O)c3c(c2c1)CCCN3 | -0.0127 °C
15 | O=C([O-])c1ccccc1O.[Na+] [Sodium salicylate] | 0.068 °C
16 | COc1ccc2[nH]cc(CCNC(C)=O)c2c1 [Melatonin] | 0.184 °C
17 | Nc1nc(F)nc2c1ncn2[C@@H]1O[C@H](CO)[C@@H](O)[C@@H]1O [Fludarabine] | 0.671 °C
18 | CC(=O)N1c2ccc(-c3ccc(C(=O)O)cc3)cc2[C@H](Nc2ccc(Cl)cc2)C[C@@H]1C | -0.273 °C
19 | CC[C@H]1OC(=O)[C@H](C)[C@@H](O[C@H]2C[C@@](C)(OC)[C@@H](O)[C@H](C)O2)[C@H](C)[C@@H](O[C@@H]2O[C@H](C)C[C@H](N(C)C)[C@H]2O)[C@](C)(O)C[C@@H](C)/C(=N\OCOCCOC)[C@H](C)[C@@H](O)[C@]1(C)O [Roxithromycin] | 0.0857 °C
20 | CC(=O)c1cnc2ccc(-c3cc(Cl)c(O)c(Cl)c3)nc2c1N[C@H]1CC[C@H](CN(C)C)CC1 | 0.0382 °C
21 | O=C(O)c1ccc(Cl)cc1O [4-Chlorosalicylic acid] | 0.169 °C
22 | C=C1CC[C@H](O)C/C1=C/C=C1\CCC[C@]2(C)[C@@H]([C@H](C)CCCC(C)(C)O)CC[C@@H]12 [Calcifediol] | 0.00242 °C
23 | CC(C)CC(=O)Nc1n[nH]c2c1CN(C(=O)C1CCN(C)CC1)C2(C)C | 0.557 °C
24 | O=C(NCCS(=O)(=O)c1ccc(C(F)(F)F)cn1)c1ccc(Cl)cc1 | -0.18 °C
25 | CN1CC[C@H](c2c(O)cc(O)c3c(=O)cc(-c4ccccc4Cl)oc23)[C@H](O)C1 [Flavopiridol HCl] | -0.0734 °C
26 | CN1CC[C@H](c2c(O)cc(O)c3c(=O)cc(-c4ccccc4Cl)oc23)[C@H](O)C1 [Flavopiridol (Alvocidib)] | 0.0861 °C

Row | Compound | thermal shift ΔTm of Mpro
27 | COc1cc(S(=O)(=O)O)ccc1O [Sulfogaiacol] | 0.258 °C
28 | COc1ccc(-c2cc(=O)c3c(O)cc(O)cc3o2)cc1O [Diosmetin] | 0.36 °C
29 | Nc1nc(Cl)nc2c1ncn2[C@@H]1O[C@H](CO)[C@@H](O)[C@@H]1F [Clofarabine] | 0.255 °C
30 | CC(C)C(=O)OCC(=O)[C@@]12O[C@H](C3CCCCC3)O[C@@H]1C[C@H]1[C@@H]3CCC4=CC(=O)C=C[C@]4(C)[C@H]3[C@@H](O)C[C@@]12C [Ciclesonide] | -0.386 °C
31 | CCCCCCCCCCCCCCOc1ccc(C(=O)O)o1 | -1.25 °C
32 | Cc1ccc(Nc2nnc(Cc3ccncc3)c3ccccc23)cc1Br | -0.108 °C
33 | O=C1CN2Cc3c(ccc(Cl)c3Cl)N=C2N1 [Anagrelide HCl] | 0.162 °C
34 | O=C1CN2Cc3c(ccc(Cl)c3Cl)N=C2N1 [Anagrelide] | 0.0366 °C
35 | CC(C)[C@H](N)C(=O)N1CCC[C@H]1B(O)O [Talabostat mesylate] | 0.137 °C
36 | COCCN1CCN(Cc2ccc(-c3n[nH]c4c3C(=O)c3c(NC(=O)NN5CCOCC5)cccc3-4)cc2)CC1 | 0.188 °C
37 | COC(=O)C1=CCCN(C)C1 [Arecoline] | 0.00899 °C
38 | CN(C)Cc1c(C(=O)NCCOc2ccc(C(=O)NO)cc2)oc2ccccc12 | 0.211 °C
39 | CC(C)NCC(O)COc1ccc(COCCOC(C)C)cc1 (stereo not drawn) [Bisoprolol fumarate] | 0.247 °C
40 | NCCCNc1ccc(Nc2nccc(Nc3cc(C4CC4)[nH]n3)n2)cc1 | 0.205 °C
41 | CNCC(=O)c1ccc(O)c(O)c1 [Adrenalone HCl] | -0.204 °C
42 | Oc1cccc(Nc2ncc(F)c(Nc3cccc(O)c3)n2)c1 [(E)-Elafibranor] | 0.275 °C
43 | O=c1cc(-c2ccc(O)cc2)oc2cc(O)cc(O)c12 [Apigenin] | 0.264 °C
44 | CCN(CC)C(=O)[C@@]1(c2ccccc2)C[C@H]1CN [Levomilnacipran] | 0.379 °C
45 | COc1ccc(S(=O)(=O)N(CCO)c2ccccc2CN(C)CC=Cc2ccc(Cl)cc2)cc1 | -0.0785 °C
46 | C[C@@H](N)[C@H]1CC[C@H](C(=O)Nc2ccncc2)CC1 | 0.14 °C
47 | NNC(=O)c1ccccn1 [2-Picolinyl hydrazide] | 0.203 °C
48 | c1cnc2cc3c(cc2n1)[C@@H]1CNC[C@H]3C1 [Varenicline Tartrate] | -0.0409 °C
49 | c1cnc2cc3c(cc2n1)[C@@H]1CNC[C@H]3C1 [Varenicline] | -0.0678 °C
50 | CC(=O)OCC(COC(C)=O)OC(C)=O [Triacetin] | -0.00728 °C
51 | Fc1ccc2c(/C=C/c3nn[nH]n3)c[nH]c2c1 | 0.117 °C
52 | CC(=O)N[C@H]1CSSC[C@@H](C(N)=O)NC(=O)[C@H](C(C)C)NC(=O)[C@H](C)NC(=O)[C@H](Cc2c[nH]cn2)NC1=O [Exherin] | 0.104 °C

Some of the entries so far, comma-delimited:
Row,Compound,thermal shift ΔTm of Mpro
10,C=CC[C@@H]1/C=C(\C)C[C@H](C)C[C@H](OC)[C@H]2O[C@@](O)(C(=O)C(=O)N3CCCC[C@H]3C(=O)O[C@H](/C(C)=C/[C@@H]3CC[C@@H](O)[C@H](OC)C3)[C@H](C)[C@@H](O)CC1=O)[C@H](C)C[C@@H]2OC [Tacrolimus (FK506)],-0.144 °C
11,CN(C)Cc1cccc(N=C(c2ccccc2)c2c(O)[nH]c3cc(C(N)=O)ccc23)c1,-0.0811 °C
12,O=C(N/N=C/c1ccc(O)c(O)c1)c1cc2ccccc2cc1O [Dynasore],0.849 °C
13,Cc1ccc(C(=O)c2cc(O)c(O)c([N+](=O)[O-])c2)cc1 [Tolcapone],0.887 °C
14,CC(C)(C)[Si](C)(C)Oc1ccc2oc(=O)c3c(c2c1)CCCN3,-0.0127 °C

Following part:

Row | Compound | thermal shift ΔTm of Mpro
53 | O=C(CCCCCCNC(=O)c1cnc(N(c2ccccc2)c2ccccc2)nc1)NO [Rocilinostat (ACY-1215)] | -0.222 °C
54 | O=c1ncccn1[C@@H]1O[C@H](CO)[C@@H](O)[C@H]1O [Zebularine] | 0.0563 °C
55 | CC(C)N(CCNC(=O)CN1CCCC1=O)C(C)C [Pramiracetam] | -0.0349 °C
56 | COc1cccc(CNC(=O)Nc2nc(-c3ccncc3)cs2)c1 | -0.00201 °C
57 | NC(CO)(CO)CO [Trometamol] | -0.0655 °C
58 | C=CCCCCCCCCC(=O)O[C@H]1CC[C@H]2[C@@H]3CCC4=CC(=O)C=C[C@]4(C)[C@H]3CC[C@]12C [Parenabol] | -0.359 °C
59 | C=CC(=O)N1CCN(C(=O)CNc2cc(I)c(Cl)cc2O)CC1 [K-Ras(G12C) inhibitor 12] | -0.243 °C
60 | CO[C@@H]1[C@@H](O[C@@H]2O[C@H](C)[C@@H](O[C@H]3C[C@@](C)(O)[C@@H](O)[C@H](C)O3)[C@H](N(C)C)[C@H]2O)[C@@H](CC=O)C[C@@H](C)[C@@H](O[C@H]2CC[C@H](N(C)C)[C@@H](C)O2)/C=C/C=C/C[C@@H](C)OC(=O)C[C@H]1OC(C)=O [Acetylspiramycin] | 0.197 °C
61 | Clc1ccc(C(Cn2ccnc2)OCc2c(Cl)cccc2Cl)c(Cl)c1 (stereo not drawn) [Isoconazole nitrate] | -0.178 °C
62 | CC(C)n1nc(-c2cc3cc(O)ccc3[nH]2)c2c(N)ncnc21 | 0.785 °C
63 | CCOC(=O)c1cnn(-c2ccccc2)c1NC(=O)c1cc2nc(-c3ccco3)cc(C(F)(F)Cl)n2n1 [Mycro-3] | 0.271 °C
64 | NC(=O)N1c2ccccc2C=Cc2ccccc21 [Carbamazepine] | -0.265 °C
65 | Cc1ccc(S(=O)(=O)Nc2cc(C(F)(F)F)ccc2C(=O)Nc2nc(-c3ccccc3)cs2)cc1 | 0.106 °C
66 | CC(=O)Nc1cccc2c1c(Sc1ccc(Cl)cc1)c(C)n2CC(=O)O | 0.0597 °C
67 | CC(COc1ccccc1)N(CCCl)Cc1ccccc1 (stereo not drawn) [Phenoxybenzamine HCl] | -0.00786 °C
68 | Nc1ncn([C@@H]2O[C@H](CO)[C@@H](O)[C@H]2O)c(=O)n1 [Azacitidine] | 0.0637 °C
69 | Cc1c(N)nc(C(CC(N)=O)NCC(N)C(N)=O)nc1C(=O)NC(C(=O)NC(C)C(O)C(C)C(=O)NC(C(=O)NCCc1nc(-c2nc(C(=O)NCCC[S+](C)C)cs2)cs1)C(C)O)C(O[C@@H]1O[C@@H](CO)[C@@H](O)[C@H](O)[C@@H]1O[C@H]1O[C@H](CO)[C@@H](O)[C@H](OC(N)=O)[C@@H]1O)c1cnc[nH]1 (stereo partly drawn) [Bleomycin Sulfate] | 0.287 °C
70 | CCCNC(C)C(=O)Nc1ccccc1C (stereo not drawn) [Prilocaine] | 0.0219 °C
71 | CCCNC(C)C(=O)Nc1ccccc1C (stereo not drawn) [Propitocaine hydrochloride] | 0.125 °C
72 | O=C(O)c1ncn[nH]1 [1H-1,2,4-Triazole-3-carboxylic acid] | 0.179 °C
73 | COc1cc(/C=C/C(=O)N2CCN(CC(=O)N3CCCC3)CC2)cc(OC)c1OC [Cinepazide maleate] | -0.0659 °C
74 | CCCCCCCCCCCCCCCCCCOP(=O)([O-])OC1CC[N+](C)(C)CC1 [Perifosine] | 0.0636 °C
75 | O=C(Nc1ccc(OC(F)(F)F)cc1)c1sccc1NCc1ccnc2ccccc12 | 0.431 °C
76 | O=C(c1cccc(Br)c1)N1CCC(N2CCCC2)CC1 [UNC 926 hydrochloride] | -0.0359 °C
77 | Cc1c(-c2ccnn2C)cc(C(=O)NCc2ccc(S(C)(=O)=O)cn2)c(=O)n1-c1cccc(C(F)(F)F)c1 [Alvelestat (AZD9668)] | -0.0124 °C
78 | CCCCC[C@H](O)/C=C/[C@@H]1[C@@H](C/C=C\CCCC(=O)O)[C@@H](O)C[C@H]1O [Dinoprost Tromethamine] | -0.00295 °C
